Source: patent US20100286093A1, “ANTI-INFLAMMATORY COMPOSITION CONTAINING DOCOSAHEXAENOYL LYSOPHOSPHATIDYLAMINE AS AN ACTIVE INGREDIENT” (The Industry & Academic Cooperation in Chungnam National …, priority 2009, published 2010)
At least one compound was matched to its structure with a doubt left.

Test system: zymosan A induced plasma leakage
Test: Zymosan A induced plasma leakage in peritoneal fluid (Evans blue), intravenous injection
Assay type: in vivo, mice
Conditions: 50 μg/kg, 30 minutes before zymosan A injection; compared to docosahexaenoyl lysophosphatidylcholine
Experimental: To investigate inhibitory effect of docosahexaenoyl lysophosphatidylcholine on peritonitis induced by zymosan, the present inventors induced inflammation in abdominal cavity by injecting zymosan A (saccharomyces cerevisiae) (Sigma-Aldrich Corp, St. Louis, Mo., USA), and then administered lysophosphatidylcholine, followed by evaluation of anti-inflammatory effect. Particularly, SPF mice (6 weeks, male) were adapted for 12 hours and then raised in an animal laboratory at College of Pharmacy under 12/12 hour dark/light cycle. Then, the mice were used for intra-abdominal inflammatory response experiment. […] Supernatant was obtained from the centrifugation, with which exudation of Evans blue was measured by spectrophotometer at 620 nm to evaluate anti-inflammatory effect (Arita M, et al., Proc Natl Acad Sci USA. 2005 May 24; 102(21):7671-6; Takenaka M, et al., Biol Pharm Bull. 2005 July; 28(7):1291-3).
The present inventors measured time-dependent anti-inflammatory effect (inhibitory effect on zymosan A induced plasma leakage) of each lysophosphatidylcholine. […]
Particularly, docosahexaenoyl lysophosphatidylcholine (50 μg/kg), docosahexaenoic acid (50 μg/kg) or 17-HPDHA lysophosphatidylcholine (17(S)-hydroperoxy-4,7,10,13,15,19-docosahexaenoyl lysophosphatidylcholine) were compared. […] 30 minutes later, plasma leakage in peritoneal fluid was measured. […]

Question: Which “inhibitory effect on plasma leakage (metabolite comparison)” value does the source give for `CC/C=C\C/C=C\C/C=C\C/C=C\C/C=C\C/C=C\CCC(=O)O` [docosahexaenoic acid, reference compound] here?
Answer: Its value is “did not show any significant inhibitory effect”.
